In the supplement of paper PMC10849652:
The other results are listed elsewhere or left out.

Protein sequences, listed by entry. Tags and fused reporters are not part of them. Lines headed by an entry give the natural chain unless they say otherwise; changes in a name come on top.
UniProt Q86SG5: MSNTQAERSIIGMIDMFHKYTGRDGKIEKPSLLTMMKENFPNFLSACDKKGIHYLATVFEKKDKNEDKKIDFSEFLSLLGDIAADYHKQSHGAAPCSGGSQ
UniProt P80511: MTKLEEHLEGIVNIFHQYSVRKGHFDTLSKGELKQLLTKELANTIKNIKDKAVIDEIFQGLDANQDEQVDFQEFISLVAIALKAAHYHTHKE
UniProt Q96C34: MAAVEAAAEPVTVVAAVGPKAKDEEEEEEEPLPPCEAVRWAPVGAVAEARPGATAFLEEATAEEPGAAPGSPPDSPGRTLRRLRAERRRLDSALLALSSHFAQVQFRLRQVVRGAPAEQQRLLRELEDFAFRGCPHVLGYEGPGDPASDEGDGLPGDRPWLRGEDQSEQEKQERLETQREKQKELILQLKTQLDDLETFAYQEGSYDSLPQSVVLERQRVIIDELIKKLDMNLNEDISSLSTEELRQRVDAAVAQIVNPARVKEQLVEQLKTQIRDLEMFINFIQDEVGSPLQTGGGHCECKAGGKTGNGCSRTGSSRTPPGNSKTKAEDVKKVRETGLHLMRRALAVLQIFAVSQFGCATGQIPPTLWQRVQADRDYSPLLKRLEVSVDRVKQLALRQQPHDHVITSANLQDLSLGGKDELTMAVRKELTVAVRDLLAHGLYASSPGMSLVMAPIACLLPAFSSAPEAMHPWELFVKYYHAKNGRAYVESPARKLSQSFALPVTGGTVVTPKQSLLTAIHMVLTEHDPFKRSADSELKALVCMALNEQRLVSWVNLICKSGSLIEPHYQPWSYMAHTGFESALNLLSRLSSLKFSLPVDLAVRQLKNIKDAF
UniProt Q9NYV6: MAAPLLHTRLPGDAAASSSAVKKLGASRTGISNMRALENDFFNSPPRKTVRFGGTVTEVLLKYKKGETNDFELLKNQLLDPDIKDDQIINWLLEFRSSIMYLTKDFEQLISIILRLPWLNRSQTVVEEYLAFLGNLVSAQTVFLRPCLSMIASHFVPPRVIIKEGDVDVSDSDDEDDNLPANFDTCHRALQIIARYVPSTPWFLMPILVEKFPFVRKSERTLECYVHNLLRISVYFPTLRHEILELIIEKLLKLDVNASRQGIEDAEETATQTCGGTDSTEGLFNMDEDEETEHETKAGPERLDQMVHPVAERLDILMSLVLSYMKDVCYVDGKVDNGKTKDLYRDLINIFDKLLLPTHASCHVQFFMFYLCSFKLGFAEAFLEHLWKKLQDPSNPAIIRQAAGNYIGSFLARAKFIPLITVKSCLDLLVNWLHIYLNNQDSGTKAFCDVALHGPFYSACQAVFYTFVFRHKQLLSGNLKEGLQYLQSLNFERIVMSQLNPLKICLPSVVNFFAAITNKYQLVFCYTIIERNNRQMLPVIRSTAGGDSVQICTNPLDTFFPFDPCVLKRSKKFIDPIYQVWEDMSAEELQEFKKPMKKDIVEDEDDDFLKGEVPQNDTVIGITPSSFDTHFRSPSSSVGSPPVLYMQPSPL
UniProt A6ZKI3: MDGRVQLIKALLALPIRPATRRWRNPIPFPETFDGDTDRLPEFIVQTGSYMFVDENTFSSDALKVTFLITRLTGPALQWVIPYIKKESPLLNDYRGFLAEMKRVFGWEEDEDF
UniProt Q9BUV0: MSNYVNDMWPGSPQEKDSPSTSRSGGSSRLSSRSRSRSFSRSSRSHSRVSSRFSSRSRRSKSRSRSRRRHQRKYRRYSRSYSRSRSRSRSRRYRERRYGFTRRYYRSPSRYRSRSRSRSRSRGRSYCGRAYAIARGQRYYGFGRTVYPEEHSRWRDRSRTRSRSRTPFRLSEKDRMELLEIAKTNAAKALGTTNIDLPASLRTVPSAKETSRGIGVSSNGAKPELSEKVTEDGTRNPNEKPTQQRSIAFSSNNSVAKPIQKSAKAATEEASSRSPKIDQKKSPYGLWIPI
UniProt Q6P087: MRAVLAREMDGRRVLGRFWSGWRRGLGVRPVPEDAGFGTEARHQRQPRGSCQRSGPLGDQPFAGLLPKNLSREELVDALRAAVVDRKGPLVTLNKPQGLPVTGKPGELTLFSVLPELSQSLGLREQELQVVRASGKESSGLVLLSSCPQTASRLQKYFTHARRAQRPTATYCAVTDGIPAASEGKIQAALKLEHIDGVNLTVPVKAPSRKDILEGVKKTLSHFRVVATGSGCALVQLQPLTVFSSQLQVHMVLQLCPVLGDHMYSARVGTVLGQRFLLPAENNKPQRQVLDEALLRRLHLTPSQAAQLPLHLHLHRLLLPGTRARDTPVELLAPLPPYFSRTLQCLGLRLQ
UniProt Q96EU6: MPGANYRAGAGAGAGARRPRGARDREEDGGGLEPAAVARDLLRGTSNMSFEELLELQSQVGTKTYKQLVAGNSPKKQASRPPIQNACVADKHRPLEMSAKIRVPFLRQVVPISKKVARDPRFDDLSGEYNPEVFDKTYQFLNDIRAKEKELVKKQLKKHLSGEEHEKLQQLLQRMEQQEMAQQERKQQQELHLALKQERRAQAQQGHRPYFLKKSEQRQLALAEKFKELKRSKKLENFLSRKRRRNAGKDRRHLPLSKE
UniProt Q9NZ71: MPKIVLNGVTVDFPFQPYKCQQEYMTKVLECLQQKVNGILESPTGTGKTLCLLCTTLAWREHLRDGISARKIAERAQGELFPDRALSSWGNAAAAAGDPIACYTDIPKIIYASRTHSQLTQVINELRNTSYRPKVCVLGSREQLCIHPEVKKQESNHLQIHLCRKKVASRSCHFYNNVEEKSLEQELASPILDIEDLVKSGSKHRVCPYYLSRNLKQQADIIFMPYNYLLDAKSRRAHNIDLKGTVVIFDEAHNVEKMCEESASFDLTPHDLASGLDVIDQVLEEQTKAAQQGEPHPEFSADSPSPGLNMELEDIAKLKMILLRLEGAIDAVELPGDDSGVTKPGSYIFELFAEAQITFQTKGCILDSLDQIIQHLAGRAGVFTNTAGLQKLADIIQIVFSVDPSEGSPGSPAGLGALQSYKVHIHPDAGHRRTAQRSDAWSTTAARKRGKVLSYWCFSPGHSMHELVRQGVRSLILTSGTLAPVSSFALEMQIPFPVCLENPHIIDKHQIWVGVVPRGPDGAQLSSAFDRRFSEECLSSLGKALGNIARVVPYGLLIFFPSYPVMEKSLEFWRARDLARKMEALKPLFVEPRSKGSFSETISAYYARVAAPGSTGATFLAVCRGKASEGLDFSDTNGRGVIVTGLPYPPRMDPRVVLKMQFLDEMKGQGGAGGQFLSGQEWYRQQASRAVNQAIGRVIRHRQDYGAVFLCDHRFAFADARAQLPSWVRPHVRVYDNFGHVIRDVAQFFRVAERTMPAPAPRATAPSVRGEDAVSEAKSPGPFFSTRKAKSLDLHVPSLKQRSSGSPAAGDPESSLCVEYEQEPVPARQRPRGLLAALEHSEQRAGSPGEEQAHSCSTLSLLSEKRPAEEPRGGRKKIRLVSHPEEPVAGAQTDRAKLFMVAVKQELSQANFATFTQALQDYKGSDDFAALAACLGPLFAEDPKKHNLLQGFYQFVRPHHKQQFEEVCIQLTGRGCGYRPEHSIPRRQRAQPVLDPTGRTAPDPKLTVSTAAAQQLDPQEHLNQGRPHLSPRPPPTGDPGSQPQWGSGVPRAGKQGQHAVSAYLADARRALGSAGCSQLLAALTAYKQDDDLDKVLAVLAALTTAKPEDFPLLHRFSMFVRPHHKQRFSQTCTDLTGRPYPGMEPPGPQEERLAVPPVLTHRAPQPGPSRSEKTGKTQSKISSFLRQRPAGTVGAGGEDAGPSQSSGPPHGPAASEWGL
UniProt P60903, whole entry, looked up: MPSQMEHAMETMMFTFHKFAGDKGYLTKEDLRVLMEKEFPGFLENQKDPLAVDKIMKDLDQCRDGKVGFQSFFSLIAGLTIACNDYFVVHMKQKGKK
UniProt P51812, whole entry, looked up: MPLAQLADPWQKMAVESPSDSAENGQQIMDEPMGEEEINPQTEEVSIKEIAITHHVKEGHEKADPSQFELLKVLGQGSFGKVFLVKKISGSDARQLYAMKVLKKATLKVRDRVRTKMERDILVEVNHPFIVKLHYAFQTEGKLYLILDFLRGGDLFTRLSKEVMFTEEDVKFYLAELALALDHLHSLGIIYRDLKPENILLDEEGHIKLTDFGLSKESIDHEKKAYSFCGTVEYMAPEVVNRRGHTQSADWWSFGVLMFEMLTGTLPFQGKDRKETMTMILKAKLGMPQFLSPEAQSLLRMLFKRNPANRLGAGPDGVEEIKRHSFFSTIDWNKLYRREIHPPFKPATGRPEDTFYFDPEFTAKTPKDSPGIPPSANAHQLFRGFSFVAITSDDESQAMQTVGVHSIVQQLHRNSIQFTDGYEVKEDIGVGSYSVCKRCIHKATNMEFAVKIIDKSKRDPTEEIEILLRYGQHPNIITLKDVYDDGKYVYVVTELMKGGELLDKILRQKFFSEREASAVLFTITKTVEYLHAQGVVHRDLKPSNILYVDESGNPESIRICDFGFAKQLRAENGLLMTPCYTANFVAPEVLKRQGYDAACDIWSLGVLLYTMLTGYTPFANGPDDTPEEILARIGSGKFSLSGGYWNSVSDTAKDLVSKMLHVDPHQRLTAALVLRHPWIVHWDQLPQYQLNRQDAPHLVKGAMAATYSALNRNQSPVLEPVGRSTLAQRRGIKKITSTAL
UniProt Q8WXA3: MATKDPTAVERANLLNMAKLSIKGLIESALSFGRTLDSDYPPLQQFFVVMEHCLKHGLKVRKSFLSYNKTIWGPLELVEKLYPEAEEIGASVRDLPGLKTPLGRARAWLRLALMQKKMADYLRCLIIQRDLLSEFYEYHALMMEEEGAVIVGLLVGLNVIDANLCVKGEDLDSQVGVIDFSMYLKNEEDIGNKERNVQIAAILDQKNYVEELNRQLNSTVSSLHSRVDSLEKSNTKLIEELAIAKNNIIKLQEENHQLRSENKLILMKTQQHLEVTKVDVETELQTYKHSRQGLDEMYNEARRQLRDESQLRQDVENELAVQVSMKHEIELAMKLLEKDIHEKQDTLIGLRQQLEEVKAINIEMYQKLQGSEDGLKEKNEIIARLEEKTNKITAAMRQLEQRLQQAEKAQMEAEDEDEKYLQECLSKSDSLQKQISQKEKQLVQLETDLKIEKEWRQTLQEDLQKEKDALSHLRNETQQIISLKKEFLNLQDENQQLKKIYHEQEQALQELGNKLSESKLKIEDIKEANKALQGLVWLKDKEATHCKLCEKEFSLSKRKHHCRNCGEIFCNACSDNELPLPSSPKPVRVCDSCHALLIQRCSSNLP
UniProt Q86WX3: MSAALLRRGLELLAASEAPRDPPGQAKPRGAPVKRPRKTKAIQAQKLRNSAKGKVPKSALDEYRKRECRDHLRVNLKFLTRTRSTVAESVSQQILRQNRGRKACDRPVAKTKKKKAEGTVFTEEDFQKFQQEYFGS
UniProt Q9BZR6: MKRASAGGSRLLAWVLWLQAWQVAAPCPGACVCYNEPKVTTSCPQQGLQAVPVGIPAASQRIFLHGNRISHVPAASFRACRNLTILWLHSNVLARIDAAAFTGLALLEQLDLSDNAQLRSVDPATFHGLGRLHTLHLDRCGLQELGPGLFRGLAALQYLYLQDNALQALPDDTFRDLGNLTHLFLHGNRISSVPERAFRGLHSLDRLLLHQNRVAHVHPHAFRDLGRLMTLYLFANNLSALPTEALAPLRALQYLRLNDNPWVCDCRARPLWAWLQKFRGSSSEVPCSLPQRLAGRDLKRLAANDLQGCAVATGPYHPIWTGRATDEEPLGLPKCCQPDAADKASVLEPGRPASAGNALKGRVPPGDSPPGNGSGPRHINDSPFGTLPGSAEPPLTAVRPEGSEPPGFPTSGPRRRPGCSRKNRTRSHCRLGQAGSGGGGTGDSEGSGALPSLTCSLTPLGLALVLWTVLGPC
UniProt P19793: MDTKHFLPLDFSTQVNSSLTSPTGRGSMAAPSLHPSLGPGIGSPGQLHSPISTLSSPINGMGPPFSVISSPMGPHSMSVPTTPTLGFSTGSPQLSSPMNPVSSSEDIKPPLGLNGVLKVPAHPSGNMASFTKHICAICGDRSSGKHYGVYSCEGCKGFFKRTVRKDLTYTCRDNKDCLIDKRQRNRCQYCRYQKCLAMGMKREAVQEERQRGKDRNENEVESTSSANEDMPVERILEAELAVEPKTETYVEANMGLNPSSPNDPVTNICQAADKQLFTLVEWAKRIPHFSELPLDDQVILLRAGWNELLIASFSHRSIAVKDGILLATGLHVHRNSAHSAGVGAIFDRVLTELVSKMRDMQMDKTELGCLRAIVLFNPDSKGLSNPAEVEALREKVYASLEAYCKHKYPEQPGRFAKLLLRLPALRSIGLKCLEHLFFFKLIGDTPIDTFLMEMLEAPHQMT
UniProt Q9HCY8: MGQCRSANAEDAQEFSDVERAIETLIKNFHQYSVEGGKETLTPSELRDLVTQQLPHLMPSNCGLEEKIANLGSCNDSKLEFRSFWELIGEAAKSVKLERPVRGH
UniProt Q96FQ6: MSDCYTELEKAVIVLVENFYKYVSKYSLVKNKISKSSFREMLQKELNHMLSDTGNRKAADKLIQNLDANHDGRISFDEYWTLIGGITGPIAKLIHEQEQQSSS

Columns and labels:
Assay in all cases: log2 fold change, soluble protein after heating vs DMSO (PISA); higher = thermal stabilisation; K562 lysate, 10 uM; active = over 0.2 and 3.5 SD of the protein, either way, in both replicates (recomputed)
erlotinib = compound: C#Cc1cccc(Nc2ncnc3cc(OCCOC)c(OCCOC)cc23)c1 [erlotinib]
Summary of the method: (§1)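 K562 pellets were dounce-homogenised in PBS pH 7.4 containing 1 mM MgCl2, and the crude extract, at 1 mg/mL protein, was exposed to 10 μM compound for 30 min. Aliquots were heated for 3 min across 48°C-58°C, pooled, brought to 0.5% NP-40 at 4°C and spun at 21,000xg for 90 min, with the supernatant taken as soluble protein. TMTpro 16plex LC-MS/MS with equalised channel sums quantified that protein. Values are log-two fold changes in thermal stability relative to solvent controls, taken from duplicates.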

[1] = compound: C1=CC(=CC=C1C2=NC3=C(N2)C=C(C=C3)C(=O)N)OC4=CC=C(C=C4)Cl
Summary of the method: as §1

[2] = compound: CC(C)C1=C2N=C(C=C(N2N=C1)NCC3=CC=CC=C3)NCCCCCCN
Summary of the method: as §1

[3] = compound: CC1=C(C=C(C=C1)NC(=O)C2=CC(=CC=C2)C(C)(C)C#N)NC3=CC4=C(C=C3)N=CN(C4=O)C
Summary of the method: as §1

[4] = compound: C/C(=N\NC(=O)C1=CC(=CC=C1)S(=O)(=O)N2CCOCC2)/C3=C(C=CC(=C3)Cl)O
Summary of the method: as §1

[5] = compound: C1=CC2=C(C=CC(=C2)/C=C\3/C(=O)NC(=NCC4=CC=CS4)S3)N=C1
Summary of the method: as §1

[6] = compound: C1=CC=C2C(=C1)C3=NNC4=CC=CC(=C43)C2=O
Summary of the method: as §1

[7] = compound: CC1=C(C(CC(=O)N1)C2=CC=C(C=C2)C(F)(F)F)C(=O)NC3=C(C=C4C(=C3)C=NN4)F
Summary of the method: as §1

[8] = compound: CC1=C(C2=C(C=C1)C(=O)C3=CC=CC=C3N2CCCN)C
Summary of the method: as §1

[9] = compound: C1=CC2=NC=CN=C2C=C1/C=C/3\C(=O)NC(=O)S3
Summary of the method: as §1

[10] = compound: C1=CC=C(C=C1)C2=NC(=C(N2)C3=CC=NC=C3)C4=CC(=C(C=C4)Cl)O
Summary of the method: as §1

IRAK-1-4 Inhibitor I = compound: C1COCCN1CCN2C3=CC=CC=C3N=C2NC(=O)C4=CC(=CC=C4)[N+](=O)[O-] [IRAK-1-4 Inhibitor I]
Summary of the method: as §1

ibrutinib = compound: C=CC(=O)N1CCC[C@@H](n2nc(-c3ccc(Oc4ccccc4)cc3)c3c(N)ncnc32)C1 [ibrutinib]
Summary of the method: as §1

ralimetinib = compound: CC(C)(C)Cn1c(N)nc2ccc(-c3[nH]c(C(C)(C)C)nc3-c3ccc(F)cc3)nc21 [ralimetinib]
Summary of the method: as §1

[11] = compound: CC(C)(O)CC(=O)NCCn1ccc2ncnc(Nc3ccc(Oc4cccc(C(F)(F)F)c4)c(Cl)c3)c21
Summary of the method: as §1

[12] = compound: CC1=C(C=C(C=C1)NC(=O)C2=CC(=CC=C2)N(C)C)NC(=O)C3=CC=C(C=C3)O
Summary of the method: as §1

[13] = compound: C1CCN(C1)C(=O)NC2=CC=CC(=C2)NC3=NC=C(C(=N3)NCCC4=CN=CN4)Br
Summary of the method: as §1

[14] = compound: C1CN(CCC1(CC2=CC=C(C=C2)Cl)N)C3=NC=NC4=C3C=CN4
Summary of the method: as §1

[15] = compound: CC(=O)c1cnc2ccc(-c3cc(Cl)c(O)c(Cl)c3)nc2c1N[C@H]1CC[C@H](CN(C)C)CC1
Summary of the method: as §1

[16] = compound: CC1=CC=C(C=C1)SC2=C3C=C(SC3=CN=C2)C(=O)N
Summary of the method: as §1

Measured: log2 fold change

S100A7A (UniProt Q86SG5)
inactive: erlotinib 0.42 | [1] -0.26 | [2] -0.037 | [3] 0.301

S100A12 (UniProt P80511)
inactive: [4] 2.52 | [5] 0.026 | [6] -0.007

RPSA (UniProt F8WD59)
inactive: [7] 0.069 | [8] 0.043

RUNDC1 (UniProt Q96C34)
inactive: erlotinib 0.076 | [1] -0.029 | [9] -0.035 | [10] -0.023 | IRAK-1-4 Inhibitor I -0.097 | ibrutinib -0.036 | ralimetinib 0.217 | [11] 0.086 | [2] 0.05 | [8] -0.099 | [3] -0.017 | [12] -0.256

RRN3 (UniProt Q9NYV6)
inactive: [4] -0.107 | [5] -0.123 | [9] 0.346 | [10] 0.045 | [6] -0.096 | [13] -0.011 | [14] -0.041 | IRAK-1-4 Inhibitor I 0.019 | ibrutinib 0.228 | [15] -0.007 | ralimetinib 0.098 | [11] -0.079 | [7] -0.232 | [8] -0.05 | [3] 0.032 | [12] -0.018 | [16] 0.081

RYR1 (UniProt P21817)
inactive: erlotinib -0.077 | [1] -0.174 | [9] 0.012 | [10] -0.025 | [13] -0.029 | [14] -0.057 | IRAK-1-4 Inhibitor I -0.003 | ibrutinib 0.091 | [15] 0.008 | ralimetinib -0.028 | [11] -0.012 | [2] -0.088 | [8] -0.014 | [3] 0.195 | [12] -0.032 | [16] 0.013

RUFY3 isoform 2 (UniProt Q7L099)
inactive: erlotinib 0.078 | [1] 0.032 | [9] -0.022 | [10] -0.167 | IRAK-1-4 Inhibitor I -0.009 | ibrutinib 0.146 | [15] -0.021 | ralimetinib 0.011 | [11] 0.008 | [2] 0.018 | [8] -0.08 | [3] 0.02 | [12] -0.153 | [16] 0.008

RSL24D1 (UniProt Q9UHA3)
inactive: erlotinib 0.068 | [1] 0.024 | [10] 0.064 | [13] 0.01 | [14] 0.153 | IRAK-1-4 Inhibitor I 0.049 | [15] -0.057 | ralimetinib -0.055 | [11] -0.009 | [2] -0.123 | [7] -0.033 | [8] -0.002 | [3] 0.101 | [12] -0.021 | [16] 0.03

RTL8C (UniProt A6ZKI3)
inactive: erlotinib -0.052 | [4] 0.125 | [1] -0.084 | [5] 0.114 | [10] 0.07 | [6] -0.076 | [13] 0.217 | [14] 0.046 | IRAK-1-4 Inhibitor I 0.042 | ralimetinib -0.051 | [11] -0.064 | [2] 0.034 | [7] 0.018 | [8] -0.005 | [3] -0.066 | [12] -0.045

RSRP1 (UniProt Q9BUV0)
inactive: [8] 0.173

RPUSD3 (UniProt Q6P087)
inactive: erlotinib -0.068 | [4] -0.1 | [1] -0.084 | [5] 0.024 | [6] 0.021 | [13] -0.034 | [14] -0.105 | [2] -0.023 | [7] 0.085 | [8] 0.045 | [3] 0.047

RTN4 isoform 3 (UniProt Q9NQC3)
inactive: [13] -0.036 | [14] 0.213

RPS15, A0A0B4J2B4
inactive: [15] -0.046 | [7] -0.073 | [16] 0.132

Reprinted from above (seven entries):
S100A12 (UniProt P80511)
inactive: [4] 2.52 | [5] 0.026 | [6] -0.007

RPSA (UniProt F8WD59)
inactive: [7] 0.069 | [8] 0.043

RUNDC1 (UniProt Q96C34)
inactive: erlotinib 0.076 | [1] -0.029 | [9] -0.035 | [10] -0.023 | IRAK-1-4 Inhibitor I -0.097 | ibrutinib -0.036 | ralimetinib 0.217 | [11] 0.086 | [2] 0.05 | [8] -0.099 | [3] -0.017 | [12] -0.256

RRN3 (UniProt Q9NYV6)
inactive: [4] -0.107 | [5] -0.123 | [9] 0.346 | [10] 0.045 | [6] -0.096 | [13] -0.011 | [14] -0.041 | IRAK-1-4 Inhibitor I 0.019 | ibrutinib 0.228 | [15] -0.007 | ralimetinib 0.098 | [11] -0.079 | [7] -0.232 | [8] -0.05 | [3] 0.032 | [12] -0.018 | [16] 0.081

RYR1 (UniProt P21817)
inactive: erlotinib -0.077 | [1] -0.174 | [9] 0.012 | [10] -0.025 | [13] -0.029 | [14] -0.057 | IRAK-1-4 Inhibitor I -0.003 | ibrutinib 0.091 | [15] 0.008 | ralimetinib -0.028 | [11] -0.012 | [2] -0.088 | [8] -0.014 | [3] 0.195 | [12] -0.032 | [16] 0.013

RUFY3 isoform 2 (UniProt Q7L099)
inactive: erlotinib 0.078 | [1] 0.032 | [9] -0.022 | [10] -0.167 | IRAK-1-4 Inhibitor I -0.009 | ibrutinib 0.146 | [15] -0.021 | ralimetinib 0.011 | [11] 0.008 | [2] 0.018 | [8] -0.08 | [3] 0.02 | [12] -0.153 | [16] 0.008

RSL24D1 (UniProt Q9UHA3)
inactive: erlotinib 0.068 | [1] 0.024 | [10] 0.064 | [13] 0.01 | [14] 0.153 | IRAK-1-4 Inhibitor I 0.049 | [15] -0.057 | ralimetinib -0.055 | [11] -0.009 | [2] -0.123 | [7] -0.033 | [8] -0.002 | [3] 0.101 | [12] -0.021 | [16] 0.03

Next entries.

RPP30 (UniProt Q5VU11)
inactive: [4] -0.362 | [5] -0.052 | [6] 0.053 | [13] 0.015 | [14] -0.185

RRP36 (UniProt Q96EU6)
inactive: erlotinib -0.01 | [4] 0.23 | [1] -0.048 | [5] 0.224 | [10] 0.021 | [6] -0.04 | [13] -0.112 | [14] 0.039 | IRAK-1-4 Inhibitor I -0.001 | [15] 0.014 | ralimetinib 0.011 | [11] 0.016 | [2] 0.082 | [8] -0.067 | [3] 0.108 | [12] -0.027 | [16] 0.07

RWDD3 (UniProt Q9Y3V2)
inactive: [10] -0.204 | IRAK-1-4 Inhibitor I 0.114 | ralimetinib 0.058 | [11] 0.128 | [8] 0.326 | [3] -0.139 | [12] -0.08

RTEL1 isoform 2 (UniProt Q9NZ71)
inactive: [7] 0.102 | [8] 0.034

RPS19 (UniProt M0R2L9)
inactive: erlotinib -0.387 | [4] -0.23 | [1] -0.279 | [5] -0.053 | [10] 0.018 | [6] -0.148 | [13] -0.191 | [14] -0.381 | IRAK-1-4 Inhibitor I 0.102 | ralimetinib -0.16 | [11] 0.115 | [2] 0.051 | [8] 0.136 | [3] -0.035 | [12] 0.012

S100A10 (UniProt P60903)
inactive: erlotinib 0.094 | [1] -0.053 | [9] 0.184 | [10] -0.254 | IRAK-1-4 Inhibitor I -0.312 | ibrutinib 0.118 | ralimetinib 0.665 | [11] 0.725 | [2] -0.008 | [7] 0.756 | [8] 0.838 | [3] -0.232 | [12] 0.817

RPS6KA3 (UniProt P51812)
inactive: erlotinib -0.04 | [4] -0.003 | [1] 0.182 | [9] 0.004 | [10] 0.026 | [6] 0.328 | [13] 0.082 | [14] -0.043 | IRAK-1-4 Inhibitor I -0.019 | ibrutinib -0.04 | ralimetinib -0.004 | [11] -0.032 | [2] -0.11 | [7] -0.043 | [8] -0.02 | [3] -0.061 | [12] 0.006 | [16] -0.039
active: [15] 0.56

RUFY2 isoform 1 (UniProt Q8WXA3)
inactive: [4] -0.117 | [5] 0.02 | [9] 0.016 | [10] -0.099 | [6] 0 | [13] -0.01 | [14] 0.041 | IRAK-1-4 Inhibitor I 0.05 | ibrutinib 0.068 | ralimetinib -0.031 | [11] 0.005 | [7] -0.118 | [3] -0.101 | [12] -0.033

RPS19BP1 (UniProt Q86WX3)
inactive: [13] -0.159 | [14] -0.042 | [15] 0.191 | [3] 0.205 | [16] 0.086

RTN4R (UniProt Q9BZR6)
inactive: erlotinib 0.123 | [1] 0.064 | [2] 0.038

RXRA (UniProt P19793)
inactive: erlotinib 0.102 | [1] 0.008 | [10] -0.025 | IRAK-1-4 Inhibitor I 0.113 | [15] -0.028 | ralimetinib -0.033 | [11] 0.087 | [2] 0.066 | [7] 0.059 | [8] 0.063 | [3] -0.02 | [12] -0.036 | [16] 0

RTN4, A0A0U1RQR6
inactive: [10] 0.116 | IRAK-1-4 Inhibitor I 0.195 | ralimetinib -0.177 | [11] -0.169 | [12] -0.038

S100A14 (UniProt Q9HCY8)
inactive: erlotinib 0.117 | [1] -0.217 | [9] 0.182 | [10] -0.044 | [13] 0.106 | [14] -0.459 | IRAK-1-4 Inhibitor I -0.119 | ibrutinib -0.082 | [15] 0.025 | ralimetinib -0.099 | [11] 0.548 | [2] 0 | [8] 0.359 | [12] 0.058 | [16] -0.001

S100A16 (UniProt Q96FQ6)
inactive: [9] 0.032 | ibrutinib 0.186 | [15] -0.022 | [7] 0.978 | [3] -0.004 | [16] 0.002
